PubChem BioAssay AID1259405 | NCATS – 2018
Here is one part, drawn at random, of about 50,000 reagents tested. In the full data, about 4,000 (8%) are marked active. 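Mouse siRNA library applied to hamster cells; one well for each siRNA.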 The numbers tell different reagents against one gene apart. No sequences are given here.

Screen: 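Silenced genes that increase secreted GFP made by CHO cells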 (primary screen)
Cell system: Chinese hamster CHO-K1 ovary cells with stable secreted eGFP expression
Reagents: single siRNA against mouse genes, 0.8 pmol siRNA per well (2 µl of 400 nM stock)
Duration: 3 days
Measurement: 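Per-well intracellular GFP measured by laser scanning cytometry, plus viability from ATP luminescence, each relative to plate median of non-targeting control wells, in %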
Scale: GFP, % of control: higher = more GFP per well, higher productivity; viability (ATP), % of control: higher = more viable cells (more ATP)
Hit rule: 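a knock-down is called active if GFP reaches 120% or more of non-targeting control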

target | siRNA no. | GFP, % of control | viability (ATP), % of control | Call
Swap70 | 1 | 78.6 | 80.1 | inactive
Swap70 | 2 | 83.3 | 96.2 | inactive
Epha10 | 1 | 39.4 | 45.2 | inactive
Epha10 | 2 | 57.6 | 60.7 | inactive
Epha10 | 3 | 42.9 | 50.7 | inactive
Ghrh | 1 | 69.3 | 52.3 | inactive
Ghrh | 2 | 25.5 | 18.1 | inactive
Ghrh | 3 | 103 | 61 | inactive
Cav3 | 1 | 72.5 | 78.1 | inactive
Cav3 | 2 | 113 | 104 | inactive
Cav3 | 3 | 25.1 | 21.4 | inactive
Arfgap1 | 1 | 108 | 70.4 | inactive
Arfgap1 | 2 | 103 | 136 | inactive
Arfgap1 | 3 | 123 | 107 | active
Vmn1r189 | 1 | 52.4 | 52.5 | inactive
Vmn1r189 | 2 | 112 | 61.5 | inactive
Vmn1r189 | 3 | 74 | 83.3 | inactive
Icos | 1 | 55.5 | 71.5 | inactive
Icos | 2 | 69.8 | 73.7 | inactive
Icos | 3 | 117 | 98.7 | inactive
Ido1 | 1 | 28.5 | 29.8 | inactive
Ido1 | 2 | 64.3 | 74 | inactive
Pax8 | 1 | 99.8 | 83.1 | inactive
Pax8 | 2 | 57.6 | 75.7 | inactive
Or4a71 | 1 | 99 | 88.4 | inactive
Or4a71 | 2 | 100 | 84.3 | inactive
Or4a71 | 3 | 91.3 | 121 | inactive
Bivm | 1 | 49 | 52.2 | inactive
Bivm | 2 | 111 | 101 | inactive
Bivm | 3 | 102 | 114 | inactive
Or9s13 | 1 | 66 | 91.8 | inactive
Or9s13 | 2 | 76 | 52.6 | inactive
Or9s13 | 3 | 81.3 | 83.3 | inactive
Robo3 | 1 | 92.8 | 59.5 | inactive
Robo3 | 2 | 90.4 | 121 | inactive
Robo3 | 3 | 57.4 | 74.3 | inactive

No new results follow: 6 of the entries above.
target | siRNA no. | GFP, % of control | viability (ATP), % of control | Call
Vmn1r189 | 1 | 52.4 | 52.5 | inactive
Vmn1r189 | 2 | 112 | 61.5 | inactive
Vmn1r189 | 3 | 74 | 83.3 | inactive
Icos | 1 | 55.5 | 71.5 | inactive
Icos | 2 | 69.8 | 73.7 | inactive
Icos | 3 | 117 | 98.7 | inactive
